According to PubChem BioAssay AID328 (DTP/NCI, 2004):
The list is a part of this screen's results and no random one: it gathers tests that were run many times, whatever their T/C, doses with no T/C, and many T/C values between a quarter and a half above the control. Further doses and runs are listed elsewhere. T/C: endpoint of the treated group in % of that of the vehicle group. Some entries give survivors of the animals treated and no T/C: the source holds a T/C of zero for them, seemingly a mark for toxic or unscored doses. Some doses without a T/C left all or most animals alive at the check, yet need not have been tolerated: survival well below the control is almost never listed, so the zero probably covers shortened survival too. Survivors were counted at the toxicity check, usually on the fifth day, unless a day is given; later deaths do not show. Schedule codes are those of the source, read here as Q, the interval in days (D) or hours (H), X, the number of doses. Some doses were run more than once; their values stand side by side, smallest first. Where survival is the endpoint, this PubChem deposit counts one and a half times the control or more as active, and values a quarter to a half above the control carry no call in these data; other NCI protocols may use other cut-offs. Some T/C values carry the count of animals alive at the toxicity check (mostly the fifth day); without a count, all were alive then. Additions like (4×) count equal records among those shown.

Test system: BDF1 mice, P388 leukemia ip, median survival T/C
Test: NCI In Vivo Anticancer Drug Screen. Data for tumor model P388 Leukemia (intraperitoneal) in B6D2F1 (BDF1) mice
Settings: T/C endpoint: median survival time, higher T/C = longer survival
How it was run: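 In tumour-bearing mice, survival after compound treatment is set against the vehicle group and given as a quotient.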

[1] = dose: 50.0 mg/kg/injection, schedule: Q01DX009 (ip), vehicle: Klucel (hydroxypropylcellulose) (HPC)
[2] = dose: 50.0 mg/kg/injection, schedule: Q04DX002 (ip), vehicle: Klucel (hydroxypropylcellulose) (HPC)
[3] = dose: 50.0 mg/kg/injection, schedule: Q04DX003 (ip), vehicle: Klucel (hydroxypropylcellulose) (HPC)
[4] = dose: 100.0 mg/kg/injection, schedule: Q04DX002 (ip), vehicle: Klucel (hydroxypropylcellulose) (HPC)
[5] = dose: 100.0 mg/kg/injection, schedule: Q04DX003 (ip), vehicle: Klucel (hydroxypropylcellulose) (HPC)
[6] = dose: 200.0 mg/kg/injection, schedule: Q01DX005 (ip), vehicle: Klucel (hydroxypropylcellulose) (HPC)
[7] = dose: 200.0 mg/kg/injection, schedule: Q04DX003 (ip), vehicle: Klucel (hydroxypropylcellulose) (HPC)
[8] = dose: 400.0 mg/kg/injection, schedule: Q04DX003 (ip), vehicle: Klucel (hydroxypropylcellulose) (HPC)

With `Nc1n[nH]c(N)n1` the T/C (dose: 50.0 mg/kg/injection, schedule: Q01DX001 (ip), vehicle: Klucel (hydroxypropylcellulose) (HPC)) was 88, 93 [5 of 6 alive], 94 (2×), 95 (2×), 100 (3×), 100 [5 of 6 alive] (2×), 101 (3×), 102 (2×), 103, 104 (2×), 106, 107, 110 (2×), 111, 120 (2×), 121 % of control (2×), the T/C (dose: 50.0 mg/kg/injection, schedule: Q01DX005 (ip), vehicle: Klucel (hydroxypropylcellulose) (HPC)) was 88, 91, 93 (2×), 94, 96, 98, 99 (5×), 100 (2×), 103 (3×), 104, 106 (3×), 107, 108 (2×), 110 (3×), 111, 112, 114, 118, 119, 121, 122, 123 % of control and the T/C [1] was 87 (2×), 90 [5 of 6 alive], 91, 92, 94, 95, 97, 98, 99, 100, 100 [5 of 6 alive], 101 (5×), 102 (3×), 103, 104 (3×), 105, 106 (2×), 107, 109 (2×), 110, 111, 113, 114, 127 % of control. The survivor count [1] was 5 of 6, the T/C [2] was 88 (2×), 90, 91, 92 (2×), 94, 94 [5 of 6 alive], 95, 96, 97, 99 (3×), 100 (2×), 101, 102 (3×), 102 [5 of 6 alive], 103 (2×), 104 (2×), 105, 106 (2×), 113, 115 (2×), 116, 120 % of control and the survivor count [2] was 6 of 6. The T/C [3] was 91, 94 (2×), 95 (2×), 98 (2×), 99, 100 (2×), 101 (3×), 103 (3×), 105 (2×), 106 (2×), 109, 110 (3×), 111 (4×), 114 (2×), 115, 116, 129, 134 % of control, the survivor count [3] was 3 of 3 and 6 of 6 and the T/C (dose: 100.0 mg/kg/injection, schedule: Q01DX001 (ip), vehicle: Klucel (hydroxypropylcellulose) (HPC)) was 91 (2×), 96, 98, 99, 100 (2×), 101, 102 (2×), 103, 104 (3×), 105 (2×), 107 (3×), 108 (2×), 109, 110, 111, 115, 119, 126, 127 % of control. The T/C (dose: 100.0 mg/kg/injection, schedule: Q01DX005 (ip), vehicle: Klucel (hydroxypropylcellulose) (HPC)) was 90, 91, 96, 100, 101 (2×), 102, 103 (2×), 104, 105, 106, 107 [2 of 3 alive], 108 (4×), 109 [5 of 6 alive], 110 (2×), 112 (2×), 114, 115, 116 (2×), 117, 119 (3×), 120 (2×), 125, 133, 134 % of control, the T/C (dose: 100.0 mg/kg/injection, schedule: Q01DX009 (ip), vehicle: Klucel (hydroxypropylcellulose) (HPC)) was 93, 95 (2×), 96, 97, 98, 99, 100, 103 (2×), 104, 105 (3×), 106, 108 (2×), 110 (2×), 111 (2×), 113 (2×), 114, 116, 118, 119 (3×), 120, 121, 126, 127, 129, 130, 171 % of control and the T/C [4] was 88, 92 (2×), 94, 97 (2×), 99, 100 (4×), 101 (4×), 102, 103 (2×), 105 (2×), 106 (2×), 107 (2×), 109, 111 (2×), 112, 116, 117, 120 (2×), 138 % of control. For the same compound, the survivor count [4] was 3 of 3, the T/C [5] was 89, 91, 100 (4×), 101 (3×), 102 (2×), 103 (3×), 104 (2×), 105 (3×), 106 (4×), 107 (2×), 108, 109, 110 (3×), 111, 114, 121, 125, 135 % of control and the survivor count [5] was 3 of 3. The T/C (dose: 200.0 mg/kg/injection, schedule: Q01DX001 (ip), vehicle: Klucel (hydroxypropylcellulose) (HPC)) was 91, 96, 100, 101, 102, 103, 105, 106 (3×), 107 (3×), 108 (5×), 109 (3×), 111, 112 (3×), 114, 114 [5 of 6 alive], 120 % of control, the T/C [6] was 97, 105, 107 (2×), 108 (3×), 109, 110 (2×), 111 (3×), 112 (2×), 114, 115 (3×), 116, 117, 121, 123, 124, 125, 126 (4×), 128, 131, 134, 135, 138 % of control and the survivor count [6] was 3 of 3. The T/C (dose: 200.0 mg/kg/injection, schedule: Q01DX009 (ip), vehicle: Klucel (hydroxypropylcellulose) (HPC)) was 90, 92, 96, 102, 104, 105 [2 of 3 alive], 106 (2×), 109, 111 (2×), 112, 113, 114, 115, 116, 117 (2×), 118, 120 (2×), 121, 122 (2×), 123 (2×), 126, 128, 133, 134 [5 of 6 alive], 137 (3×), 142, 144, 146 % of control, the T/C (dose: 200.0 mg/kg/injection, schedule: Q04DX002 (ip), vehicle: Klucel (hydroxypropylcellulose) (HPC)) was 88, 89, 92, 95, 97, 98, 100 (3×), 101, 101 [5 of 6 alive], 102, 103 (3×), 105, 106 (3×), 107 (2×), 108 (2×), 109, 110 (2×), 111 [5 of 6 alive], 112, 115, 116, 117, 120 (2×), 121 % of control and the T/C [7] was 91, 92, 95, 96 (2×), 99 (2×), 100, 101, 102 (3×), 103, 104 (2×), 105, 106 (2×), 107 (3×), 108, 109 (2×), 110 (2×), 111 (2×), 112 (2×), 113, 115 (2×), 118, 130 % of control. The survivor count [7] was 3 of 3, the T/C (dose: 400.0 mg/kg/injection, schedule: Q01DX001 (ip), vehicle: Klucel (hydroxypropylcellulose) (HPC)) was 89, 93, 94, 95, 97 [5 of 6 alive], 100 (2×), 102, 103, 104, 105 (2×), 106 (2×), 108 [4 of 6 alive], 109 (3×), 110, 111 (3×), 112 (3×), 116 [5 of 6 alive], 120, 127 % of control and the T/C (dose: 400.0 mg/kg/injection, schedule: Q01DX005 (ip), vehicle: Klucel (hydroxypropylcellulose) (HPC)) was 96, 103, 106, 109, 110 (2×), 111, 112 (2×), 113, 114 (2×), 116, 118, 120 (2×), 122, 125, 126, 127 (2×), 128, 130, 131, 132, 133, 135, 136 (3×), 138, 140, 141, 153, 170 % of control. The T/C (dose: 400.0 mg/kg/injection, schedule: Q01DX009 (ip), vehicle: Klucel (hydroxypropylcellulose) (HPC)) was 109, 110, 112, 113, 114 [2 of 3 alive], 115, 115 [2 of 3 alive], 116, 118, 119, 120, 122 (2×), 126, 126 [5 of 6 alive], 127, 128, 131, 133, 134 (2×), 135 [5 of 6 alive], 136, 137, 138, 139, 142, 143, 146, 147, 148 (2×), 153 [5 of 6 alive], 160, 163, 172 % of control, the T/C (dose: 400.0 mg/kg/injection, schedule: Q01DX009 (ip), vehicle: saline) was 136 % of control and the T/C (dose: 400.0 mg/kg/injection, schedule: Q04DX002 (ip), vehicle: Klucel (hydroxypropylcellulose) (HPC)) was 88, 92 (2×), 95, 97 (2×), 98, 100 (3×), 102 (2×), 103, 105, 106, 107 (3×), 108 (2×), 109 (2×), 110, 111 (2×), 112, 113, 117 (2×), 119, 120 (2×), 123, 128 % of control. For the same compound, the T/C [8] was 88, 91, 93, 97, 100 (3×), 101 (2×), 102, 103 (2×), 104, 105 (4×), 107 (2×), 108, 109 (2×), 110 (3×), 111 (4×), 113, 114, 116, 125, 129, 155 % of control and the survivor count [8] was 3 of 3.
